From the supplement of paper PMC10849652
The list shows a part of the results.

Protein sequences, listed by entry. Tags and fused reporters are not part of them. Lines headed by an entry give the natural chain unless they say otherwise; changes in a name come on top.
UniProt Q9H7C9: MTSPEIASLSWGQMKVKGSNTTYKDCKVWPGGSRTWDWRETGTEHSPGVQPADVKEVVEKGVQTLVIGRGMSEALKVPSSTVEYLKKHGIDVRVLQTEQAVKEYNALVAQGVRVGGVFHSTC
UniProt Q96QU6: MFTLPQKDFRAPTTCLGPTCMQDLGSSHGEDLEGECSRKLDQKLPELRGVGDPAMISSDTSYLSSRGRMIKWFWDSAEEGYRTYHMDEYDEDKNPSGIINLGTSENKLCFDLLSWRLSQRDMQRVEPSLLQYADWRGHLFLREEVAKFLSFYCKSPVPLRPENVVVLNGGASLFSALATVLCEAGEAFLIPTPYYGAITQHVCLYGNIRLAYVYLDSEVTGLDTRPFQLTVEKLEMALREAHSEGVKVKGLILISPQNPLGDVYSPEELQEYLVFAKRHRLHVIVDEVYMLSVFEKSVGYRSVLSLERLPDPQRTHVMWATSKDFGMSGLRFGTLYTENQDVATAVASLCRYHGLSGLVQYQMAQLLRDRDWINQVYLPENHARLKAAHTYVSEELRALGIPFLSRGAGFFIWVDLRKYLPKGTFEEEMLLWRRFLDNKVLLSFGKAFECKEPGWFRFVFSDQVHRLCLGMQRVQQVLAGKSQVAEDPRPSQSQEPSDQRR
UniProt P00519, whole entry, looked up: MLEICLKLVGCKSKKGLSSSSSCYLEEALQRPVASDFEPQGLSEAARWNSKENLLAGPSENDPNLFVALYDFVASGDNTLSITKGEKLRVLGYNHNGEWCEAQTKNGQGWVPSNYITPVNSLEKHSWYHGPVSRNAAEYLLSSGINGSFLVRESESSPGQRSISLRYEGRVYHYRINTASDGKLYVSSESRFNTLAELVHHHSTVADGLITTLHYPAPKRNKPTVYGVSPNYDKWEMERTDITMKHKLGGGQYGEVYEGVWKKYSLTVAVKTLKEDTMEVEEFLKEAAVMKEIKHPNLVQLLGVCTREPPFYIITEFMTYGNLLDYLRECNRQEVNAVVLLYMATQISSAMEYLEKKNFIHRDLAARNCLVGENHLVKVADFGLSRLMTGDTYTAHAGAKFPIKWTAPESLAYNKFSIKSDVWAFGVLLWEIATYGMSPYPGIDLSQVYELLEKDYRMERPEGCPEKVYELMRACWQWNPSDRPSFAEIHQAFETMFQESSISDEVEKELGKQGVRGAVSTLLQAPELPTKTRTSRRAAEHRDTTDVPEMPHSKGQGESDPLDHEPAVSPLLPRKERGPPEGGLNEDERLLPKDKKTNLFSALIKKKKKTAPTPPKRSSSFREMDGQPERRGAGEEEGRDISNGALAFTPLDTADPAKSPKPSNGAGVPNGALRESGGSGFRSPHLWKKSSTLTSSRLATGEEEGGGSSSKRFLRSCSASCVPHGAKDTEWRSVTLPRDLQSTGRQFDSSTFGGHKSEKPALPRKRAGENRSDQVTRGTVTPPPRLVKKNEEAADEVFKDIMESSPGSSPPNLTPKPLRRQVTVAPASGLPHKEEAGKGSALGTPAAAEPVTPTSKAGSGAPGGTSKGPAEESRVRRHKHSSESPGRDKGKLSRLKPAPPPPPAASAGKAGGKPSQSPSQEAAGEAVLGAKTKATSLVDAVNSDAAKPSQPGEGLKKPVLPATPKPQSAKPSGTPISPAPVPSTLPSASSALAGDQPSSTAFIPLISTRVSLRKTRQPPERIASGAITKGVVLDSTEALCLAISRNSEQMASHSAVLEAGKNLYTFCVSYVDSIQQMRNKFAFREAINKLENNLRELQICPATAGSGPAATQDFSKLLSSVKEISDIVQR
UniProt O75027: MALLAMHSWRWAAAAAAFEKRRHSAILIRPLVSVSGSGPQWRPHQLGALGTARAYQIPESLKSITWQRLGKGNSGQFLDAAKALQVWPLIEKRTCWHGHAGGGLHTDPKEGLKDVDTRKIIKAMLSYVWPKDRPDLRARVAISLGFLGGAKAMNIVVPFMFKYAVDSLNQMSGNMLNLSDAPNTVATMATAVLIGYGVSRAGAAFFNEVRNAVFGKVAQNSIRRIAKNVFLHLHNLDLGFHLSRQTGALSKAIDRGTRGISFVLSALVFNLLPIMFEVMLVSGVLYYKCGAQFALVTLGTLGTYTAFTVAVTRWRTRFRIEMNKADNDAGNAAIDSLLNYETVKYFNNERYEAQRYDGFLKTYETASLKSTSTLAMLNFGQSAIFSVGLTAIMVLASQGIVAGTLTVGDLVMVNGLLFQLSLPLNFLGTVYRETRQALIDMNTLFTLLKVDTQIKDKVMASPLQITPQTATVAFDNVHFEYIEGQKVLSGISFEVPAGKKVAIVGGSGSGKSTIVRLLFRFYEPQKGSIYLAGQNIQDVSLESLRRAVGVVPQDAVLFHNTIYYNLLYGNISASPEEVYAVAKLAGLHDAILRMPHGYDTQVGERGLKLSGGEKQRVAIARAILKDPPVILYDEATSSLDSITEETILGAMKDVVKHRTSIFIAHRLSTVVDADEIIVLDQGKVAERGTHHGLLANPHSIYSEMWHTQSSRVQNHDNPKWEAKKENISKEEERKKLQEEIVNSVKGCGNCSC
UniProt Q9H3P7: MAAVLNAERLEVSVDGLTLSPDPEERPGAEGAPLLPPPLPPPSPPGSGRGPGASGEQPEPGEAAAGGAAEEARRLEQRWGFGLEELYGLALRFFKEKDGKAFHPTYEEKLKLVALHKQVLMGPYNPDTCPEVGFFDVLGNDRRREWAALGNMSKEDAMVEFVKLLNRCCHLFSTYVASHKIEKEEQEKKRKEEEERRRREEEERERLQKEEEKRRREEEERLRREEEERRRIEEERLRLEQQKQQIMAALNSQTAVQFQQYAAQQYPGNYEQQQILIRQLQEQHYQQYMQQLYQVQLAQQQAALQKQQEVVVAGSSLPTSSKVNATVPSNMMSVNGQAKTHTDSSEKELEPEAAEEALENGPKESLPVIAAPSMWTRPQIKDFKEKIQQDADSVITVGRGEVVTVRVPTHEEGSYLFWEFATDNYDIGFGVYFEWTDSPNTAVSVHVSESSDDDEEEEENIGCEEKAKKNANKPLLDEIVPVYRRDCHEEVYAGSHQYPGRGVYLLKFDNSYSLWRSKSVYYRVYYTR
UniProt P01023, whole entry, looked up: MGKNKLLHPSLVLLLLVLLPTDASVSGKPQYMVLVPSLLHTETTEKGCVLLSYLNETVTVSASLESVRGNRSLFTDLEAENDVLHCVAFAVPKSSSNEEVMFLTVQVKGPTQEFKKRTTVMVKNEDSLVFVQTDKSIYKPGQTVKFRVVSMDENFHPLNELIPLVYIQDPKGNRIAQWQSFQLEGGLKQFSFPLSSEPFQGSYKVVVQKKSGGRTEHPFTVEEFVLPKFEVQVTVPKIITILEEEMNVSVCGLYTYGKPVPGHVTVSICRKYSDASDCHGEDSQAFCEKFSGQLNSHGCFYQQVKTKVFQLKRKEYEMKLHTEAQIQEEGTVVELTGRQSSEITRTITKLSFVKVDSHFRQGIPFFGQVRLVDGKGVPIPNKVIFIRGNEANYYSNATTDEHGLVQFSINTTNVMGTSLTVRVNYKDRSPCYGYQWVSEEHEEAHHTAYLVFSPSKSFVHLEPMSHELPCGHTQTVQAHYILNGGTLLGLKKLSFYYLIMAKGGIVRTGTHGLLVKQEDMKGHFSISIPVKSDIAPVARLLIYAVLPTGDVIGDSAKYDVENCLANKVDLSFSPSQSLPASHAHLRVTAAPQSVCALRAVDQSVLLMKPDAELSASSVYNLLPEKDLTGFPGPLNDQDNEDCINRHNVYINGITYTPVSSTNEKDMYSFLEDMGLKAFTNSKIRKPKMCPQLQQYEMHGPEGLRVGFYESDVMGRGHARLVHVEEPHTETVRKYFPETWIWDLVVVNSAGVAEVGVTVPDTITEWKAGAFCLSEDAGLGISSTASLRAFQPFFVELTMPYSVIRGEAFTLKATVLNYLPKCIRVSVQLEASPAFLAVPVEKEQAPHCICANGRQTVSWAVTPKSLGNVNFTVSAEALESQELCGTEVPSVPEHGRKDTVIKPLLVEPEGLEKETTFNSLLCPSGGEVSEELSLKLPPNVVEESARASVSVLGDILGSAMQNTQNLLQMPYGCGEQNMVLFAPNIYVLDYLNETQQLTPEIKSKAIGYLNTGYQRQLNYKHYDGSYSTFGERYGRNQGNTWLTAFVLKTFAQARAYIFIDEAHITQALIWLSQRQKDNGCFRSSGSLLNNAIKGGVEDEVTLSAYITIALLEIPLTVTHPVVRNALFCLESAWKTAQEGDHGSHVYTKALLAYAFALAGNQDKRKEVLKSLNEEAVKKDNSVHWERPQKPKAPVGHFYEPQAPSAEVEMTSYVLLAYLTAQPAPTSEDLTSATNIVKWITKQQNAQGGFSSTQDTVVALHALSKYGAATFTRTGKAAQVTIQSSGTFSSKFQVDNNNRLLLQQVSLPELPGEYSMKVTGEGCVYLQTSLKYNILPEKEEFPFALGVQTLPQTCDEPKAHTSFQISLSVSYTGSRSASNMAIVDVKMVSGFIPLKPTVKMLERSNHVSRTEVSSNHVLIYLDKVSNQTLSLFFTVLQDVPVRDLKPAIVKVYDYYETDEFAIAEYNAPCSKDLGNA
UniProt Q8IZP0: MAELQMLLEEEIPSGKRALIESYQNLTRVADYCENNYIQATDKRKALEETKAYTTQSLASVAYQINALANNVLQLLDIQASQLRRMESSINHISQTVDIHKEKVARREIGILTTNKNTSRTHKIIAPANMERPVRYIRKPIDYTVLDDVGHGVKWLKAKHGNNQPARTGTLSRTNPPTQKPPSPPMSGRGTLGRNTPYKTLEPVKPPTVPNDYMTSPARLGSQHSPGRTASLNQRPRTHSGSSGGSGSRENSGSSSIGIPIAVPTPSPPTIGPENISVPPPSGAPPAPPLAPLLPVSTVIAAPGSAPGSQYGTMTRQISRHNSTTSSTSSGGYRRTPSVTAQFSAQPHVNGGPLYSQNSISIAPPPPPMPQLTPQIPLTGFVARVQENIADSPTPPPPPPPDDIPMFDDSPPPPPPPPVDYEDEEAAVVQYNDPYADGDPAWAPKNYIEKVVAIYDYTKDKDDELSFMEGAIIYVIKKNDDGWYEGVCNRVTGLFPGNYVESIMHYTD
UniProt Q9NRK6: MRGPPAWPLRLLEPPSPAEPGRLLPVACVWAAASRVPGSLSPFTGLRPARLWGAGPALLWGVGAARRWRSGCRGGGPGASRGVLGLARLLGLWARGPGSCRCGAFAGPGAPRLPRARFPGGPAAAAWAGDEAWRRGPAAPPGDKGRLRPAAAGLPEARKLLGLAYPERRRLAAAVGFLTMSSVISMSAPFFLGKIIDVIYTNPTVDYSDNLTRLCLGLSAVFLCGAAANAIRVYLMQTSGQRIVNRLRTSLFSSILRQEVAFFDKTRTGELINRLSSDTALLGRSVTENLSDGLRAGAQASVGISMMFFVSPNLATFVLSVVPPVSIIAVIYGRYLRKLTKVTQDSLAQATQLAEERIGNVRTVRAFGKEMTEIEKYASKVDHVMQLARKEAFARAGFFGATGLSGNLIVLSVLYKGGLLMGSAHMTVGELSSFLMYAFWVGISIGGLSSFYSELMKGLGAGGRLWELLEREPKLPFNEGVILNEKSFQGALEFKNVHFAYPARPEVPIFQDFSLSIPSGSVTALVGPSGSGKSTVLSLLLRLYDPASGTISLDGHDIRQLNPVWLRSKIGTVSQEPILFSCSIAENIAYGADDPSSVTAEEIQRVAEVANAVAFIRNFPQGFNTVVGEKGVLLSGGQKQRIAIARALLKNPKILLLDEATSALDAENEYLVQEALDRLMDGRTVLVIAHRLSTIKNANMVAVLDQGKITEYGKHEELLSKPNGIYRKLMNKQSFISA
UniProt Q8NE71: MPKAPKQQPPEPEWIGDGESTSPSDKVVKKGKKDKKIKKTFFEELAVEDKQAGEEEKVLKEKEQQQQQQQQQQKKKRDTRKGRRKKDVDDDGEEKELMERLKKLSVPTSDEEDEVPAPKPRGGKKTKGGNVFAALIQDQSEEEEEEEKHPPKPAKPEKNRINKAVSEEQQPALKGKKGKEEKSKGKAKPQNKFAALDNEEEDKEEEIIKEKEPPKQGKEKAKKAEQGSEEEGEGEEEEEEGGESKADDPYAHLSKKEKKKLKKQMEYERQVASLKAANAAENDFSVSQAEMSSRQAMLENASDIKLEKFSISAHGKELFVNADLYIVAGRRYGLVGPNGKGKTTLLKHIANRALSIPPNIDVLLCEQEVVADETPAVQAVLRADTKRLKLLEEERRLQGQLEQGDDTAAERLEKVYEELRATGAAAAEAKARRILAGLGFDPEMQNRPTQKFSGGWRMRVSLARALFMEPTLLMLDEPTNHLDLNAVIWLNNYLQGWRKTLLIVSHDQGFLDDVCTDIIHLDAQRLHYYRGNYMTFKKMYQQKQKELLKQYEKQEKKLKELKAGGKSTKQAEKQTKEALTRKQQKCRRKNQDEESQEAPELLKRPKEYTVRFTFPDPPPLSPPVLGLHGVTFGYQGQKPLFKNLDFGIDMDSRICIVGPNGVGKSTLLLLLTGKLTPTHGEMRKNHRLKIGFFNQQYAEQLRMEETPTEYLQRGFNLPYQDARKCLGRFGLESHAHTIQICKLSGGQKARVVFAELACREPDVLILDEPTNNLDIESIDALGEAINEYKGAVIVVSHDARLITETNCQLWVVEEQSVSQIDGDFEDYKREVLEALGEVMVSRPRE

Compound: C1CN(CCC1(CC2=CC=C(C=C2)Cl)N)C3=NC=NC4=C3C=CN4
Experiment: log2 fold change, soluble protein after heating vs DMSO (PISA); higher = thermal stabilisation; K562 lysate, 10 uM; active = over 0.2 and 3.5 SD of the protein, either way, in both replicates (recomputed)
Procedure, shortened: (§1)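 Values give the log-two fold change in thermal stability against solvent controls, from duplicates. Crude K562 extract at 1 mg/mL protein, made by dounce homogenisation in PBS pH 7.4 with 1 mM MgCl2, was treated with 10 μM compound for 30 min. After 3 min heating across 48°C-58°C, aliquots were pooled, adjusted to 0.5% NP-40 at 4°C and centrifuged at 21,000xg for 90 min. The supernatant was measured by TMTpro 16plex LC-MS/MS with channel sums equalised.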

log2 fold change, inactive:
AAK1, A0A096LP25 -0.129
AAMDC (UniProt Q9H7C9) 0.054
ACIN1 (UniProt E7EQT4) -0.027
ACCS (UniProt Q96QU6) 0.135
A0A0B4J2A0, A0A0B4J2A0 0.026
ABL1 isoform 2 (UniProt P00519) 0.015
ABITRAM (UniProt Q9NX38) 0.038
AACS (UniProt Q86V21) -0.009
ABCF2 isoform 2 (UniProt Q9UG63) 0.016
ACACA isoform 4 (UniProt Q13085) 0.024
ABCB7 isoform 2 (UniProt O75027) -0.015
ACADVL isoform 3 (UniProt P49748) -0.002
ABCC4 (UniProt O15439) -0.002
ABCD3 (UniProt P28288) 0.044
ABRAXAS2 (UniProt Q15018) -0.014
ACBD3 (UniProt Q9H3P7) 0.028
ACIN1 isoform 5 (UniProt Q9UKV3) -0.007
A2M (UniProt P01023) 0.005
AARS (UniProt P49588) -0.013
ABI1 isoform 9 (UniProt Q8IZP0) 0.004
AATF (UniProt Q9NY61) -0.026
AAGAB (UniProt Q6PD74) -0.028
A0A096LPI6, A0A096LPI6 0.003
ABCB10 (UniProt Q9NRK6) -0.015
ABHD10 (UniProt Q9NUJ1) 0.026
ABHD17A isoform 2 (UniProt Q96GS6) 0.025
ABT1 (UniProt Q9ULW3) -0.008
ACO1 (UniProt P21399) -0.018
ACADS (UniProt P16219) 0.027
ACBD6 (UniProt Q9BR61) -0.01
ABCF1 (UniProt Q8NE71) 0.01
ABHD16A (UniProt O95870) 0.064
AARSD1 isoform 3 (UniProt Q9BTE6) -0.017

Compound: C1COCCN1CCN2C3=CC=CC=C3N=C2NC(=O)C4=CC(=CC=C4)[N+](=O)[O-] [IRAK-1-4 Inhibitor I]
Experiment: as above
Procedure, shortened: as §1

log2 fold change, inactive:
AAK1, A0A096LP25 0.121
AAMDC (UniProt Q9H7C9) -0.049
ACIN1 (UniProt E7EQT4) 0.012
ACCS (UniProt Q96QU6) 0.112
A0A0B4J2A0, A0A0B4J2A0 0.021
ABL1 isoform 2 (UniProt P00519) -0.01
ABITRAM (UniProt Q9NX38) 0.004
AACS (UniProt Q86V21) -0.009
ABCF2 isoform 2 (UniProt Q9UG63) -0.047
ACACA isoform 4 (UniProt Q13085) 0.005
ABCB7 isoform 2 (UniProt O75027) -0.054
ACADVL isoform 3 (UniProt P49748) 0.004
ABCC4 (UniProt O15439) 0.017
ABCD3 (UniProt P28288) -0.003
ABRAXAS2 (UniProt Q15018) 0.016
ACBD3 (UniProt Q9H3P7) 0.003
ACIN1 isoform 5 (UniProt Q9UKV3) -0.006
A2M (UniProt P01023) -0.009
AARS (UniProt P49588) -0.011
ABI1 isoform 9 (UniProt Q8IZP0) -0.021
AATF (UniProt Q9NY61) -0.013
AAGAB (UniProt Q6PD74) -0.023
A0A096LPI6, A0A096LPI6 0.015
ABCB10 (UniProt Q9NRK6) -0.002
ABHD10 (UniProt Q9NUJ1) 0.006
ABHD17A isoform 2 (UniProt Q96GS6) 0.006
ABT1 (UniProt Q9ULW3) 0.056
ACO1 (UniProt P21399) -0.007
ACADS (UniProt P16219) 0.017
ACBD6 (UniProt Q9BR61) 0.019
ABCF1 (UniProt Q8NE71) -0.028
ABHD16A (UniProt O95870) -0.006
AARSD1 isoform 3 (UniProt Q9BTE6) -0.024

Compound: C=CC(=O)N1CCC[C@@H](n2nc(-c3ccc(Oc4ccccc4)cc3)c3c(N)ncnc32)C1 [ibrutinib]
Experiment: as above
Procedure, shortened: as §1

log2 fold change, inactive:
AAK1, A0A096LP25 -0.022
AAMDC (UniProt Q9H7C9) 0.044
ACIN1 (UniProt E7EQT4) 0.049
ACCS (UniProt Q96QU6) -0.028
A0A0B4J2A0, A0A0B4J2A0 0.031
ABL1 isoform 2 (UniProt P00519) 0.157
ABITRAM (UniProt Q9NX38) 0.024
AACS (UniProt Q86V21) -0.024
ABCF2 isoform 2 (UniProt Q9UG63) -0.012
ACACA isoform 4 (UniProt Q13085) 0.038
ABCB7 isoform 2 (UniProt O75027) -0.135
ACADVL isoform 3 (UniProt P49748) 0.014
ABCC4 (UniProt O15439) 0.012
ABCD3 (UniProt P28288) -0.035
ABRAXAS2 (UniProt Q15018) -0.001
ACBD3 (UniProt Q9H3P7) -0.005
ACIN1 isoform 5 (UniProt Q9UKV3) -0.004
A2M (UniProt P01023) -0.003
AARS (UniProt P49588) -0.001
ABI1 isoform 9 (UniProt Q8IZP0) 0.034
AATF (UniProt Q9NY61) 0.04
AAGAB (UniProt Q6PD74) -0.016
A0A096LPI6, A0A096LPI6 0.017
ABCB10 (UniProt Q9NRK6) -0.036
ABHD10 (UniProt Q9NUJ1) -0.011
ABHD17A isoform 2 (UniProt Q96GS6) -0.03
ABT1 (UniProt Q9ULW3) -0.016
ACO1 (UniProt P21399) 0
ACADS (UniProt P16219) -0.006
ACBD6 (UniProt Q9BR61) 0.007
ABCF1 (UniProt Q8NE71) -0.01
ABHD16A (UniProt O95870) -0.01
AARSD1 isoform 3 (UniProt Q9BTE6) -0.02
